System: A549/DDP (Cisplatin Resistant)
Assay: Crystal Violet cell proliferation assay, A549/DDP
Conditions: Homo sapiens, 72 h, read-out: IC50 of TKIs A549/DDP, TKI + 8 uM DZ1-SIM Amide, 72 h

COc1cc2ncnc(Nc3ccc(F)c(Cl)c3)c2cc1OCCCN1CCOCC1 [Gefitinib]
IC50: 1200 nM

— patent US20240261263A1, “COMPOUNDS AND METHODS TO SENSITIZE CANCER CELLS TO TYROSINE KINASE INHIBITORS” (Da Zen Theranostics, Inc., priority 2016, published 2024)
